Laboratory results taken from the supplement of paper PMC8728848.
The other results are listed elsewhere or left out.

What was measured:
Test in all cases: glycan array binding signal (z-score within array); higher = stronger binding
Details in all cases: glycan notation: IUPAC condensed, linker removed
[1] = target: GalNAc(b1-4)GlcNAc(b1-2)Man
Procedure, shortened: (§1)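 The binding signal is a Z-score computed within each array. Data were drawn from 3228 arrays in the Consortium for Functional Glycomics database, restricted to those with a known protein sequence. Scores were averaged over arrays of the same protein sequence at different concentrations or buffers, and over linkers, and negative values can be taken as non-binding.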

[2] = target: GalNAc(b1-4)GlcNAc(b1-2)Man(a1-3)[GalNAc(b1-4)GlcNAc(b1-2)Man(a1-6)]Man(b1-4)GlcNAc(b1-4)GlcNAc
Procedure, shortened: as §1

[3] = target: GalNAc(b1-4)GlcNAc(b1-3)GalNAc(b1-4)GlcNAc
Procedure, shortened: as §1

GalNAc(b1-4)GlcNAc6S = target: GalNAc(b1-4)GlcNAc6S
Procedure, shortened: as §1

GalNAc(b1-6)GalNAc = target: GalNAc(b1-6)GalNAc
Procedure, shortened: as §1

GalNAc3S(b1-4)GlcNAc = target: GalNAc3S(b1-4)GlcNAc
Procedure, shortened: as §1

GalNAc3S(b1-4)GlcNAc3S = target: GalNAc3S(b1-4)GlcNAc3S
Procedure, shortened: as §1

[4] = target: GalNAc3S(b1-4)[Fuc(a1-3)]GlcNAc
Procedure, shortened: as §1

GalNAc4S6S(b1-4)GlcNAc = target: GalNAc4S6S(b1-4)GlcNAc
Procedure, shortened: as §1

GalNAc6S(b1-4)GlcNAc = target: GalNAc6S(b1-4)GlcNAc
Procedure, shortened: as §1

Glc(a1-4)Glc = target: Glc(a1-4)Glc
Procedure, shortened: as §1

[5] = target: Glc(a1-4)Glc(a1-4)Glc(a1-4)Glc
Procedure, shortened: as §1

Glc(a1-6)Glc(a1-6)Glc = target: Glc(a1-6)Glc(a1-6)Glc
Procedure, shortened: as §1

[6] = target: Glc(a1-6)Glc(a1-6)Glc(a1-6)Glc
Procedure, shortened: as §1

Glc(b1-4)Glc = target: Glc(b1-4)Glc
Procedure, shortened: as §1

Glc(b1-6)Glc = target: Glc(b1-6)Glc
Procedure, shortened: as §1

GlcA(b1-3)Gal = target: GlcA(b1-3)Gal
Procedure, shortened: as §1

GlcA(b1-3)GlcNAc = target: GlcA(b1-3)GlcNAc
Procedure, shortened: as §1

GlcA(b1-6)Gal = target: GlcA(b1-6)Gal
Procedure, shortened: as §1

[7] = target: GlcA3S(b1-3)Gal(b1-4)GlcNAc(b1-2)Man
Procedure, shortened: as §1

[8] = target: GlcA3S(b1-3)Gal(b1-4)GlcNAc(b1-3)Gal(b1-4)Glc
Procedure, shortened: as §1

[9] = target: GlcNAc(a1-3)Gal(b1-4)GlcNAc
Procedure, shortened: as §1

[10] = target: GlcNAc(a1-4)Gal(b1-3)GlcNAc
Procedure, shortened: as §1

[11] = target: GlcNAc(a1-4)Gal(b1-4)GalNAc
Procedure, shortened: as §1

[12] = target: GlcNAc(a1-4)Gal(b1-4)GlcNAc
Procedure, shortened: as §1

[13] = target: GlcNAc(a1-4)Gal(b1-4)GlcNAc(b1-3)Gal(b1-4)Glc
Procedure, shortened: as §1

[14] = target: GlcNAc(a1-4)Gal(b1-4)GlcNAc(b1-3)Gal(b1-4)GlcNAc
Procedure, shortened: as §1

[15] = target: GlcNAc(a1-4)Gal(b1-4)GlcNAc(b1-3)Gal(b1-4)GlcNAc(b1-3)Gal(b1-4)GlcNAc
Procedure, shortened: as §1

[16] = target: GlcNAc(a1-4)Gal(b1-4)GlcNAc(b1-3)Gal(b1-4)[Fuc(a1-3)]GlcNAc(b1-3)Gal(b1-4)[Fuc(a1-3)]GlcNAc
Procedure, shortened: as §1

[17] = target: GlcNAc(a1-6)Gal(b1-4)GlcNAc
Procedure, shortened: as §1

B1: Protein L(A-C2) (Finegoldia magna), Q51912 (protein)
chain: ADEPIDLEKLEEKRDKENVGNLPKFDNEVKDGSENPMAKYPDFDDEASTRFETENNEFEEKKVVSDNFFDQSEHPFVENKEETPETPETDSEEEVTIKANLIFANGSTQTAEFKGTFEKATSEAYAYADTLKKDNGEYTVDVADKGYTLNIKFAGKEKTPEEPKEEVTIKANLIYADGKTQTAEFKGTFEEATAEAYRYADALKKDNGEYTVDVADKGYTLNIKFAGKEKTPEEPKEEVTIKANLIYADGKTQTAEFKGTFEEATAEAYRYADLLAKENGKYTVDVADKGYTLNIKFAGKEKTPEEPKEEVTIKANLIYADGKTQTAEFKGTFAEATAEAYRYADLLAKENGKYTADLEDGGYTINIRFAGKKVDEKPEEKEQVTIKENIYFEDGTVQTATFKGTFAEATAEAYRYADLLSKEHGKYTADLEDGGYTINIRFAGKEEPEETPEKPEVQDGYASYEEAEAAAKEALKNDDVNKSYTIRQGADGRYYYVLSPVEAEEEKPEAQNGYATYEEAEAAAKKALENDPINKSYSIRQGADGRYYYVLSPVEAE
- glycan array binding signal (z-score) [1]: -0.161
- glycan array binding signal (z-score) [2]: 1.78
- glycan array binding signal (z-score) [3]: -0.888
- glycan array binding signal (z-score) (GalNAc(b1-4)GlcNAc6S): -1.08
- glycan array binding signal (z-score) (GalNAc(b1-6)GalNAc): -0.685
- glycan array binding signal (z-score) (GalNAc3S(b1-4)GlcNAc): -0.166
- glycan array binding signal (z-score) (GalNAc3S(b1-4)GlcNAc3S): -0.544
- glycan array binding signal (z-score) [4]: 0.683
- glycan array binding signal (z-score) (GalNAc4S6S(b1-4)GlcNAc): -0.803
- glycan array binding signal (z-score) (GalNAc6S(b1-4)GlcNAc): -0.775
- glycan array binding signal (z-score) (Glc(a1-4)Glc): -0.316
- glycan array binding signal (z-score) [5]: 0.546
- glycan array binding signal (z-score) (Glc(a1-6)Glc(a1-6)Glc): -1.06
- glycan array binding signal (z-score) [6]: 0.057
- glycan array binding signal (z-score) (Glc(b1-4)Glc): 0.308
- glycan array binding signal (z-score) (Glc(b1-6)Glc): -0.685
- glycan array binding signal (z-score) (GlcA(b1-3)Gal): -0.562
- glycan array binding signal (z-score) (GlcA(b1-3)GlcNAc): -0.343
- glycan array binding signal (z-score) (GlcA(b1-6)Gal): -0.08
- glycan array binding signal (z-score) [7]: -0.286
- glycan array binding signal (z-score) [8]: -0.644
- glycan array binding signal (z-score) [9]: -0.967
- glycan array binding signal (z-score) [10]: -0.776
- glycan array binding signal (z-score) [11]: 0.693
- glycan array binding signal (z-score) [12]: -0.918
- glycan array binding signal (z-score) [13]: -0.042
- glycan array binding signal (z-score) [14]: -0.652
- glycan array binding signal (z-score) [15]: -0.507
- glycan array binding signal (z-score) [16]: 0.36
- glycan array binding signal (z-score) [17]: -0.792
